Experimental findings from publication PMC12365319 are described below.

The chains behind the UniProt entries cited, without tags or fusion partners.
UniProt Q6URW6: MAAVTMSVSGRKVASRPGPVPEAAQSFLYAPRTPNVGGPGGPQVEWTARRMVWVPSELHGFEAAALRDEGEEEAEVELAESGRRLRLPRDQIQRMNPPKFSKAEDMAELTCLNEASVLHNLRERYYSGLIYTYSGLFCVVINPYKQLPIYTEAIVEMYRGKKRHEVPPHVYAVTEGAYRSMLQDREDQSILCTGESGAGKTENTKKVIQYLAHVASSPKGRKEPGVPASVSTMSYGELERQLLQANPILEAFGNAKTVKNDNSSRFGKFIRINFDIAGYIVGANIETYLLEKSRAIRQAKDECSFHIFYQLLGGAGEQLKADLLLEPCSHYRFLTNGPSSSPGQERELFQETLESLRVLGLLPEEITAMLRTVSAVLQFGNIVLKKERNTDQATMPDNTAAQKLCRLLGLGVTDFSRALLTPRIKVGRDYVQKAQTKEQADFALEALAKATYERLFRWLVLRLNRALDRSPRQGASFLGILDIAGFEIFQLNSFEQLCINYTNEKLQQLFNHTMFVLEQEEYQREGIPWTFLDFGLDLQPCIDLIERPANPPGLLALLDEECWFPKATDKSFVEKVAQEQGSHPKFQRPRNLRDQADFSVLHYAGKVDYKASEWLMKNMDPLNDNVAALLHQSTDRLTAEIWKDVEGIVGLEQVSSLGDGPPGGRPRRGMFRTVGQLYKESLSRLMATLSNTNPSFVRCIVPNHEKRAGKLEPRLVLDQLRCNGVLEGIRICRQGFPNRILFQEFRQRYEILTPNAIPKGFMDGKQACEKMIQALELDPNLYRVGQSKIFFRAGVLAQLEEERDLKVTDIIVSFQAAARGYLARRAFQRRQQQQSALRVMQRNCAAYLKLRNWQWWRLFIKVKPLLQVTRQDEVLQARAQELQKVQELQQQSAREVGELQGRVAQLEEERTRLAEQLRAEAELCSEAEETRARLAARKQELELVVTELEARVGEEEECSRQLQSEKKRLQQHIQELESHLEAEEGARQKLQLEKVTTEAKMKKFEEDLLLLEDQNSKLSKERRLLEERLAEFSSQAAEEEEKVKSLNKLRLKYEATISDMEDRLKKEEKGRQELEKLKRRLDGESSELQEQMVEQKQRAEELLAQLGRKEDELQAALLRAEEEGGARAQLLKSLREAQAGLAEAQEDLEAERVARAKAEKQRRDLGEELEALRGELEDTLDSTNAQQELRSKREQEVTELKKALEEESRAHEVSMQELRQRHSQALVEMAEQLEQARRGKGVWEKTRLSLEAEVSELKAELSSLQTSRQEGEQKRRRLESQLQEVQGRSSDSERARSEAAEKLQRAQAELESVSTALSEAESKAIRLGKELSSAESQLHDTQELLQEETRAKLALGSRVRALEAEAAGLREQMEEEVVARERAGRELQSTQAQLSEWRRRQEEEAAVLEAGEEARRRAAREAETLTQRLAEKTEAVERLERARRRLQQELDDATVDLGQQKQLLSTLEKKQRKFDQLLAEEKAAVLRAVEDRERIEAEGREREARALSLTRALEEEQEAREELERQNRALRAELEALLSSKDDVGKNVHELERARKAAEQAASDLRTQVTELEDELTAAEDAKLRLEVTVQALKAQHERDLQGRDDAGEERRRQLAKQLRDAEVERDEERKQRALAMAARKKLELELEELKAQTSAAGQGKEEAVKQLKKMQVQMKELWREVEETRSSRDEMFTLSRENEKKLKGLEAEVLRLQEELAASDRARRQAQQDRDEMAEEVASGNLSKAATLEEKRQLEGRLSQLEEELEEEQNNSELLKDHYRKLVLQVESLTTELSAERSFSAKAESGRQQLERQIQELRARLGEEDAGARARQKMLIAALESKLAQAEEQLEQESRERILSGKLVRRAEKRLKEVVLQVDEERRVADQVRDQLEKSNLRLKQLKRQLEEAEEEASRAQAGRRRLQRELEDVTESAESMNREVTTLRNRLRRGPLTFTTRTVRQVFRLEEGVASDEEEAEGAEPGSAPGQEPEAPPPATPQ

No constants are given. Whether binding was seen depends on the method and setting. Binding seen in cells or lysates may run through a third protein. These calls come from enrichment with a bait or labelling near it, and not all partners need be listed.

The chains are these.
T1: F-box/LRR-repeat protein 12 (mouse (endogenous in SIM-A9)) (UniProt Q9EPX5)
T1 sequence: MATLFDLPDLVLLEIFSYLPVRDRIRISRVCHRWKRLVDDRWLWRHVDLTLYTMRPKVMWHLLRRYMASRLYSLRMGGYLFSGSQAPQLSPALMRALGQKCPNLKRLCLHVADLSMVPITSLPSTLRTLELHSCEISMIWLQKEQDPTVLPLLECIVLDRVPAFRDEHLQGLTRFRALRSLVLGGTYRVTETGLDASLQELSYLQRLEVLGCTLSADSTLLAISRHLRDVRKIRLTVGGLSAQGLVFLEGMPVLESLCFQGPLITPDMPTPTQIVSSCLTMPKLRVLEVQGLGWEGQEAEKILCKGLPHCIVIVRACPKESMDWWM

B1: MYL10 (protein, UniProt Q62082 1-202)
chain: MGQSSLDHGVQGPVAGTGDFGPLKEATATGFISCAQAPRRARKRVEGTASSNVFSMFDQSQIQEFKEAFTIMDQNRDGFIDKEDLRDTFAALGRINVKNEELEAMVKEAPGPINFTVFLTMFGEKLKGTDPEETILHAFKVFDTEGKGFVKADFIKEKLMTQADRFSEEEVKQMFAAFPPDVCGNLDYRNLCYVITHGEEKD
B2: MYL6b (protein, UniProt Q8CI43 1-207)
chain: MPPKKDAPVKKPAGPSISKPAAKSTPGTPLAKAKAEPAAPQAPAKSQEPPVDLSKVVIEFNKDQLEEFREAFELFDRVGDGKILYSQCGDLMRALGQNPTNAEVLKVLGNPKNEELKSRRVDFETFLPMLQAVAKNRDQGTYEDYLEGLRVFDKEGNGKVMGAELRHVLTTLGEKMTEEEVETVLAGHEDSNGCINYEAFLKHILSL
B3: MYL6 (protein, UniProt Q60605 1-151)
chain: MCDFTEDQTAEFKEAFQLFDRTGDGKILYSQCGDVMRALGQNPTNAEVLKVLGNPKSDEMNVKVLDFEHFLPMLQTVAKNKDQGTYEDYVEGLRVFDKEGNGTVMGAEIRHVLVTLGEKMTEEEVEMLVAGHEDSNGCINYEAFVRHILSG

This assay deals with T1, F-box/LRR-repeat protein 12 (mouse (endogenous in SIM-A9)). Description: affinity purification with mass spectrometry; whole-cell lysates of SIM-A9 microglia (wild-type, and treated with 200 ng/mL MBP for 4 days) incubated with 10 ug rabbit anti-Fbxl12 antibody for 3 h at 4 C; eluted proteins digested with trypsin, LC-MS/MS.
As for “Myosin heavy chain 14 (from UniProt Q6URW6 1-2000)”, the binding result is on record as “binds”.

In the case of B1, the binding entry is given as “binds”.

In the case of B2, the binding entry was “binds”.

On to B3, for which the binding entry is on record as “binds”.
